PubChem BioAssay AID504834 (National Center for Advancing Translational Sciences (NCATS), 2011)
Out of some 320,000 compounds screened, about 22,000 (6.9%) were called active. The inconclusive results got no clear call from the source; some entries with a clear call stand among them for comparison. Calls come from the whole dose curve; as a rule, active = well fitted inhibition curve with a large enough effect; inconclusive = small, poorly fitted or top-dose-only effect, or another doubt; inactive = no such curve, though single readings can be large or run the other way. Where the call is inconclusive, the potency comes from a doubtful curve fit.

test: Primary qHTS for delayed death inhibitors of the malarial parasite plastid, 96 hour incubation; settings: P. falciparum luciferase reporter growth; series mostly up to 28.7 µM
Outline: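 Luminescence readout: decreased luciferase signal marks inhibited growth of reporter-expressing P. falciparum in infected red cells (2% hematocrit, 0.05% parasitemia final), exposed to compound two generations (96 h, 37 C, 5% CO2).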
Potency is the fitted concentration of half-maximal effect.

Row | SMILES | Potency
1 | Cc1ccc(NC(=O)C2CC(=O)N(Cc3ccco3)C2)cc1 (stereo not drawn) | inactive
2 | Cc1cc(C)nc(NNC2=CC(=[N+]3CCCC3)CCC2)n1 | inactive
3 | CCCCOC(=O)c1ccc(NC(=O)c2c(OC)cccc2OC)cc1 | inactive
4 | Oc1c(C=C2N=c3ccccc3=N2)sc(=S)n1-c1ccc(F)cc1 | inconclusive: 18.5 µM [inhibitor, single point]
5 | O=C(Nc1ccc(Oc2ccc(NC(=O)Nc3ccc([N+](=O)[O-])cc3)cc2)cc1)Nc1ccc([N+](=O)[O-])cc1 | inconclusive: 1.04 µM [inhibitor, full curve]
6 | COc1cccc(/C=N/NC(=O)c2[nH]c(C)c(C(=O)N/N=C/c3cccc(OC)c3)c2C)c1 | inconclusive: 4.15 µM [inhibitor, single point]
7 | CCN(CC(=O)NCc1ccc(F)cc1)CC(=O)Nc1ccc(S(=O)(=O)N2CCCC2)cc1 | inconclusive: 10.4 µM [inhibitor, single point]
8 | COc1cccc(-c2ccc(NC(=O)C3CCCN(Cc4cnc(C)s4)C3)cc2)c1 (stereo not drawn) | inconclusive: 10.4 µM [inhibitor, partial curve]
9 | O=C(Nc1cc(C(F)(F)F)ccc1N1CCOCC1)c1n[nH]c(=O)c2ccccc12 | inconclusive: 10.4 µM [inhibitor, partial curve, poor fit]
10 | Cc1ccc(/C=N/NC(=O)CNC(=O)COc2ccccc2)o1 | inactive
11 | COc1ccc(CCNC(=O)c2n[nH]c3ccccc23)cc1 | inactive
12 | Cc1nc2ccccc2c(=O)n1/N=C/c1ccco1 | inconclusive: 0.0059 µM [inhibitor, partial curve, poor fit]
13 | Cc1cccc(Nc2nnc(SCC3CCCCO3)s2)c1 (stereo not drawn) | inconclusive: 3.7 µM [inhibitor, partial curve, poor fit]
14 | CCC1CCCCN1CC(O)COCc1cccc(OC)c1 (stereo not drawn) | inconclusive: 11.7 µM [inhibitor, single point]
15 | COP(=O)(c1ccc(N(C)C)cc1)C(O)c1ccccc1 (stereo not drawn) | inconclusive: 10.4 µM [inhibitor, single point]
16 | Cc1cc(C)cc(NC(=S)NN)c1 | inconclusive: 1.04 µM [inhibitor, full curve, poor fit]
17 | O=C(CN1CCN(C(=O)c2ccco2)CC1)Nc1ccc(F)cc1F | inconclusive: 18.5 µM [inhibitor, single point]
18 | CCN(CC)S(=O)(=O)c1ccc(Cl)c(C(=O)Nc2ccc(Cl)cc2[N+](=O)[O-])c1 | inconclusive: 16.5 µM [inhibitor, single point]
19 | C=C(C)Cn1c(NCCC)nc2c1c(=O)n(C)c(=O)n2C | inactive
20 | O=C(C1CCCN(CCCc2ccccc2)C1)N1CCCCCC1 (stereo not drawn) | inactive
21 | CN(CC(=O)Nc1ccc(OC(F)(F)F)cc1)C(=O)Cc1c(Cl)cccc1Cl | inconclusive: 18.5 µM [inhibitor, single point]
22 | CCOc1ccccc1N1C(=O)c2ccc(C(=O)Nc3cccnc3)cc2C1=O | inconclusive: 5.22 µM [inhibitor, partial curve]
23 | O=C1NC2=C(C(=O)OC2)C(c2ccc(OC(F)(F)F)cc2)N1 (stereo not drawn) | inactive
24 | CNCC(O)C(O)C(O)C(O)CO (stereo not drawn) | inactive

In the list so far, 2 have a nitro group on carbon:
Row | SMILES | Potency
5 | O=C(Nc1ccc(Oc2ccc(NC(=O)Nc3ccc([N+](=O)[O-])cc3)cc2)cc1)Nc1ccc([N+](=O)[O-])cc1 | inconclusive: 1.04 µM [inhibitor, full curve]
18 | CCN(CC)S(=O)(=O)c1ccc(Cl)c(C(=O)Nc2ccc(Cl)cc2[N+](=O)[O-])c1 | inconclusive: 16.5 µM [inhibitor, single point]

The results go on.

Row | SMILES | Potency
25 | CCN1CCN(C(=S)NCC2CCCO2)CC1 (stereo not drawn) | inconclusive: 5.86 µM [inhibitor, partial curve, poor fit]
26 | CCN=c1scc(C)n1/N=C/c1cc(Br)c(O)c(Br)c1 | inconclusive: 11.7 µM [inhibitor, single point]
27 | COC(CNC(=O)c1c[nH]c2ccc(S(=O)(=O)N(C)c3ccc(F)cc3)cc2c1=O)OC | inconclusive: 13.1 µM [inhibitor, single point]
28 | O=C(Cn1cnc2ccccc2c1=O)c1ccc(Br)cc1 | inconclusive: 11.7 µM [inhibitor, single point]
29 | C=CCSc1nc2sc(C)c(C)c2c(=O)n1CC=C | inactive
30 | O=C(O)C1C2C=CC(C2)C1C(=O)OCC1CCCO1 (stereo not drawn) | inconclusive: 0.928 µM [inhibitor, partial curve]
31 | Cc1cc(Oc2ccccc2)nc(SCC(=O)Nc2ccc(Cl)cc2Cl)n1 | inconclusive: 16.5 µM [inhibitor, single point]
32 | O=C(CCc1nnc(-c2ccccc2)o1)NCc1c(F)cccc1F | active: 13.1 µM
33 | Cc1nc(NC(=S)NC(=O)c2ccco2)sc1C(=O)N(C)C | inactive
34 | CCC(CC)C(=O)c1c[nH]c(C(=O)NCC2CCCO2)c1 (stereo not drawn) | inactive
35 | C=CCSc1nnc(NC(=O)Cc2ccc(OC)c(OC)c2)s1 | inconclusive: 0.0233 µM [inhibitor, full curve]
36 | COc1ccc(CCN2C(=O)CC(N3CCOCC3)C2=O)cc1 (stereo not drawn) | inconclusive: 4.15 µM [inhibitor, single point]
37 | O=C(COC(=O)c1ccc(Cl)c(S(=O)(=O)N2CCCCC2)c1)NCC1CCCCC1 | inconclusive: 4.65 µM [inhibitor, partial curve, poor fit]
38 | COC(=O)c1ccc(/C=C2\SC(=S)N(CCCC(=O)NCCCN3CCOCC3)C2=O)cc1 | inactive
39 | CCn1cc(/C=N/NS(=O)(=O)c2ccc(OC)cc2)c(C)n1 | inactive
40 | COCCCNC(=O)c1c(N)n(/N=C/c2cccs2)c2nc3ccccc3nc12 | inactive
41 | CN(CC(=O)Nc1ccc(Cl)c(C(F)(F)F)c1)C(=O)c1cc(-c2ccncc2)nc2ccccc12 | inconclusive: 11.7 µM [inhibitor, partial curve]
42 | Cc1ccc(NC(=O)/C(C#N)=C/c2ccsc2)c(C)c1 | inconclusive: 11.7 µM [inhibitor, partial curve, poor fit]
43 | CCCCCCCC(=O)OC(CN1CCCCC1)CN1CCCC1=O (stereo not drawn) | inactive
44 | S=C(Nc1ccccc1)N1CCN(C(=S)Nc2ccccc2)CC1 | active: 5.22 µM
45 | COc1ccc(C(=O)Oc2cccc(Nc3ncnc4ccccc34)c2)cc1OC | active: 2.33 µM
46 | COc1ccc(C(=O)NC(CCSC)C(=O)NC2CC2)cc1 (stereo not drawn) | inactive
47 | COc1cc(/C=N/NC(=S)Nc2cccc(S(=O)(=O)N(C)C)c2)cc(OC)c1O | active: 11.7 µM
48 | c1ccc(-c2oc3ncnc(NCCCN4CCOCC4)c3c2-c2ccccc2)cc1 | inconclusive: 11.7 µM [inhibitor, single point]
